Experimental data as given in patent US6844486.
Results are given in words; binding and its absence hold for the method and conditions named. Some entries that bind do so weakly or less than the wild type.

Biological target: Bacterially expressed, purified protein of the first 199 amino acids of NAC1 (Arabidopsis thaliana) (UniProt Q84TE6)
Assay: native gel against denaturing gel (the filing calls it gel filtration), homodimer

binding: binds
B1: Bacterially expressed, purified protein of the first 199 amino acids of NAC1 (protein)
chain: METEEEMKESSISMVEAKLPPGFRFHPKDDELVCDYLMRRSLHNNHRPPLVLIQVDLNKCEPWDIPKMACVGGKDWYFYSQRDRKYATGLRTNRATATGYWKATGKDRTILRKGKLVGMRKTLVFYQGRAPRGRKTDWVMHEFRLQGSHHPPNHSLSSPKEDWVLCRVFHKNTEGVICRDNMGSCFDETASASLPPLMD
